The source of these data is paper PMC3192838.

Sequences of proteins named here, by UniProt entry; tags and fusion partners are left off. A change or cut given only in a name is not applied to a line headed by its entry.
UniProt P19525: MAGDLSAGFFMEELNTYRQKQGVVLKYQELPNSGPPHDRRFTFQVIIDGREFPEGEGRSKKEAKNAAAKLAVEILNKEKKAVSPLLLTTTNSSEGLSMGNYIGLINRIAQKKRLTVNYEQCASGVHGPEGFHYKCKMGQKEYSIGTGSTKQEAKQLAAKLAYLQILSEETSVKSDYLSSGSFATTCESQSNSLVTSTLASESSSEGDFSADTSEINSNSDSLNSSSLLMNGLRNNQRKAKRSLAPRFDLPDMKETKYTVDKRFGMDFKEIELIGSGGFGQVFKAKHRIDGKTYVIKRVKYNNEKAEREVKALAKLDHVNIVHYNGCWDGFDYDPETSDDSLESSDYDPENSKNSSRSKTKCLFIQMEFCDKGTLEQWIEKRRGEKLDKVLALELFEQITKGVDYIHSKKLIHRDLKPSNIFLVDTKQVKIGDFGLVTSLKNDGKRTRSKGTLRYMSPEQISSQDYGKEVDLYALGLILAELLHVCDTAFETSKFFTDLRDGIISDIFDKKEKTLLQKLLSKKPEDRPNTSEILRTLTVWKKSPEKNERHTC
UniProt Q7Z434: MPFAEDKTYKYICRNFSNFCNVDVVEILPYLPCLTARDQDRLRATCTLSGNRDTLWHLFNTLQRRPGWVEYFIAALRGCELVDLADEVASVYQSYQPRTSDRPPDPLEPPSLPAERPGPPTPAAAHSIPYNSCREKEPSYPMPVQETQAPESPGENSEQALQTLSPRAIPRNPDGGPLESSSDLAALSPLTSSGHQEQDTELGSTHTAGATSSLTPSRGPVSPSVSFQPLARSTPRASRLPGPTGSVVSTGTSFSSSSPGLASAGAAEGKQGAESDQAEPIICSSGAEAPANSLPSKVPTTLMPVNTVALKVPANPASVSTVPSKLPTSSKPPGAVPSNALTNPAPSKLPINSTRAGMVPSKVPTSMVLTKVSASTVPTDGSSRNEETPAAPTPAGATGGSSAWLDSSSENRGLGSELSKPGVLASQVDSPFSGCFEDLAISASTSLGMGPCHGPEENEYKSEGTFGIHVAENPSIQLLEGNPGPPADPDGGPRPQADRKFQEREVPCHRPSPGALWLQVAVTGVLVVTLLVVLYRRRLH

In test [1] the target is PKR, dsRNA-dependent eIF2α kinase (human (endogenous in Huh7.25.CD81)) (UniProt P19525). Description: condition: only cells treated with the PRI peptide (30 mM as printed in the methods); co-IP; as a1, but cells infected with JFH1 in presence of the cell-permeable PRI peptide (re-added every hour); immunoprecipitation of endogenous PKR; immunoblot.
Test [2] has the same target. Description: co-IP; immunoprecipitation of endogenous PKR from extracts (3.5 mg) of Huh7.25.CD81 cells infected with JFH1 (m.o.i = 0.2), alone or in presence of C16; lysis buffer 50 mM TRIS-HCl pH 7.5, 140 mM NaCl, 5% glycerol, 1% CHAPS; antibody at 4°C overnight, A/G-agarose beads; immunoblot (Odyssey). (In western blotting, separated proteins are transferred to a membrane and probed.)

The target in test [3] is MAVS, mitochondria-bound adapter protein (human (endogenous in Huh7.25.CD81)) (UniProt Q7Z434). Description: co-IP; immunoprecipitation of endogenous MAVS from extracts (4.5 mg) of Huh7.25.CD81 cells transfected with siRNA Control or siRNA ISG15 for 48 hrs and infected with JFH1 (m.o.i = 0.2); 1% CHAPS lysis buffer; immunoblot for PKR, MAVS, RIG-I, TRAF3.

Results are given in words; binding and its absence hold for the method and conditions named. Binding seen in cells or lysates may run through a third protein. Some binding calls cover weakened binding; strength is not graded here.

“MAVS, mitochondria-bound adapter protein (from UniProt Q7Z434 1-540)”: the binding entry in test [1] was “no binding”; in test [2], “binds”.
Turning to “PKR, dsRNA-dependent eIF2α kinase (from UniProt P19525-1 1-551)”, the binding result in test [3] is recorded as “binds”.
